Test results: PubChem BioAssay AID1347423 (Functional Genomics Laboratory (NCATS/FGL), 2020)
The whole screen tested about 52,000 sequences, of which about 210 (0.4%) were called active.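 Rule for the calls: active = gene whose silencing raises cell survival under the drug, median off-target-corrected z-score across its silencing RNAs 2 or more; inactive = the rest.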 The list shows a part of the results.

Assay: Resistance to Poly (ADP-Ribose) Polymerase inhibitor: Gene Identification via Genome-wide siRNA Screen
Details: mouse BRCA2 R2336H ES cells, olaparib, CellTiter-Glo viability; stronger effect = higher value
In short: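 Mouse BRCA2 R2336H ES cells were reverse-transfected with siRNA (20 nM final), treated at 48 h with 500 nM olaparib, and read by CellTiter-Glo after 72 h. Scores: MAD-based z per siRNA, median per gene, seed off-target correction.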
With CCACCCAAAAGUAAAAAGUTT against Rpp38 the z-score was inactive: -0.201. With GGUCUUCAGCACCUUUGAATT against Ccl2 the z-score was inactive: -1.17. For GGACUACAACUACCUUAACTT against Cdh3, the z-score was inactive: -0.877. For GGUCCUUCCAUAGUGACGCTT against Igfbp7, the z-score was inactive: 0.24. For GAACACAAAUCUAGUAGACTT against Olfr1109, the z-score was inactive: 0.365. For GGAAAGUGUUUUGUCAAUGTT against Olfr1305, the z-score was inactive: 0.576. In the case of GCAUGCAGAGUUACUAUUGTT against Tas2r143, the z-score is reported as inactive: -1.64. In the case of GGUAUGGAAGACAAAACCUTT against Gm14, the z-score is reported as inactive: 0.685. With CGAGUCAGACCUUGAUCUATT against Zfp406 the z-score was inactive: 0.26. For “CGAGAAUAUCAUUUAUUGCTT against 2310045B01Rik”, the z-score was inactive: 0.0243. For GGAUAAAUGGGUAAUUCUGTT against V2R2, the z-score was inactive: 0.563. For CGGAGUUGACCUGACAUCCTT against Atp6v1c2, the z-score was inactive: -1.33. In the case of CGGUGAAGACUAUCAUGGUTT against Tln1, the z-score is reported as inactive: -0.313. In the case of GGCGACCUCUAGGUGUCUUTT against Falz, the z-score is reported as inactive: -0.787. In the case of GCUCAUGUCUUAUUUGGAUTT against Klhl15, the z-score is reported as inactive: 0.562. For GGAAGUUAAGCAUAGUUUCTT against Flrt3, the z-score was inactive: 0.9. With AAGGUCGUUUACAUGAACATT against MGC103250 the z-score was inactive: 0.616. With GGCAUACCCAAAAAUAGAATT against Eif1a the z-score was inactive: -0.883. With GGCCAAGUUCAACAUUCCATT against Lilrb4 the z-score was inactive: 0.206. In the case of CCACCUGUGCUACCACUUATT against Gm111, the z-score is reported as inactive: -0.118. For GCCCAAGGAGGCAUUGAUATT against Fbxo8, the z-score was inactive: -0.323. In the case of CGCAAGCUUAUUUCAAUGGTT against Cd86, the z-score is reported as inactive: 0.386. With GGAGCAAAUCCAGAGCAACTT against Actr8 the z-score was active: 2.88. In the case of GGGUCUCCAAACCAUCAGUTT against Kir3dl1, the z-score is reported as inactive: 0.356. In the case of “GGGAUUAUCAUGCUUCAGATT against A930025J12Rik”, the z-score is reported as inactive: 1.62. With GGUAUUGCACCAGGCAUGUTT against Ssh3 the z-score was inactive: -0.783. With “GGGUACCAUAGGAACCAUGTT against 2310016N21Rik” the z-score was inactive: -0.742. In the case of GGAGGUGUAUGUAAUACCATT against Efs, the z-score is reported as inactive: 1.38. In the case of “GGAGGUUUUGGAAGAAGAATT against 1700012B09Rik”, the z-score is reported as inactive: -1.28. With GCUCUUCAGAGUGAUCCAATT against Acmsd the z-score was inactive: 0.0794. With “GGCCAAGAUAAAAAAGGCCTT against 2610002M06Rik” the z-score was inactive: 0.766. For CCUAAUCUUUGUUCAGACCTT against 4.93E+26, the z-score was inactive: 0.0559. For GGGAGAGAUCCUCAACAGGTT against Cdk5rap1, the z-score was inactive: 1.38. With CGUACUUGUUUGAUUGAUCTT against Usp13 the z-score was inactive: -0.044. With GGCAUAGAGUACUUGCAUUTT against Camkk2 the z-score was inactive: 0.414. For GGACAACUGACUCCAUCAATT against Pla2g6, the z-score was inactive: -0.414. In the case of CCAGUGUUGUUCUGUAAAUTT against Tsga14, the z-score is reported as inactive: -0.905. With GGAGACAUUGGAGUAUGUCTT against Cst11 the z-score was inactive: 2.92. With “GGCCAAAAGGUUGAGCAGUTT against D13Wsu123e” the z-score was inactive: -1.01. With CCUCAGUCCUCUGUUAAAATT against Olfr355 the z-score was inactive: -0.574. With GGACCUCUUGCUAAUCCAATT against Ptprk the z-score was inactive: 0.666. In the case of GGGUUGUGAAGAGAUUAAATT against Il1rl2, the z-score is reported as inactive: -0.943. In the case of GGACACACAUUCUUACAAATT against Ppap2a, the z-score is reported as inactive: 0.912. In the case of GGCAACUUUGAGUUUGGUATT against Podn, the z-score is reported as inactive: 0.498. For GGAGAUGAAGUCUAUAUCATT against C1ql3, the z-score was inactive: 1.36. With GGAGGACAUAUAGCUGAUUTT against Ctdsp2 the z-score was inactive: 2.37. With “GGUUGCUCAGAUUCAGAAUTT against 5830446M03Rik” the z-score was inactive: -2.62. In the case of CGAGAACAGUUUGUACAAGTT against Serpinh1, the z-score is reported as inactive: 0.414. For GGAUGUUUCAGACAAGCUCTT against Olfr156, the z-score was inactive: -1.33. With GGUUGAAUUGGAGAAGAUUTT against Pcnt2 the z-score was inactive: -2.06. For GGAAUUCAAUCAGUUUGCUTT against Dysf, the z-score was inactive: 0.0588. For GAUGUAGAGUUUGGAAUGATT against Psmb10, the z-score was inactive: 2.43. For GGGUGCAUCCCAUUCUCUUTT against Pld1, the z-score was inactive: 0.0435. For GCUCCUAGGAACUUGGUUATT against Pacsin2, the z-score was active: 2.36. For “GGGCUUUAUAAGACAGUCUTT against A730012O14Rik”, the z-score was inactive: -1.56. With CCCAACAAGAGUAUCUAUGTT against Foxh1 the z-score was inactive: -0.653. For CGAAGUCGUGGCAAUGAUUTT against Hirip5, the z-score was inactive: 0.567. For GGAGGUUCGAAGCUCGAUCTT against Trim28, the z-score was inactive: -0.13. In the case of GCUAGUGCUUUUAACUCUATT against Csprs, the z-score is reported as inactive: 0.649. For GCAGGAAGCCCAGUAAAGUTT against Figla, the z-score was inactive: 1.3. In the case of GGGAGAACUUACAAAAAGATT against BC068281, the z-score is reported as inactive: -0.841. With GGCCCUAGAUUUUUAUGGGTT against Pten the z-score was inactive: 0.42. For CGACUUAAAUUGCUUGUGATT against Gas1, the z-score was inactive: -1.35. In the case of GUCUGGAUAUUUGACACUATT against BC027828, the z-score is reported as inactive: 1.02. For “GGGUGCUAAAGAAUGUAUUTT against 9330182L06Rik”, the z-score was inactive: -0.702. For GCAUGUACCCUCUUUGUAGTT against Gjb6, the z-score was inactive: -0.174. With “GGAUUACCACAAAUCUGAATT against 4930517G15Rik” the z-score was inactive: -0.483. In the case of CCUGCAAAUGAUACCACCGTT against Olfr734, the z-score is reported as inactive: 1.08. With GGCUGAGCUGGAAAUCCAGTT against Aprt the z-score was inactive: 0.228. In the case of GGAAAUUUGGUGAGCAUUUTT against Synj2bp, the z-score is reported as inactive: 0.168. With GCACGGAGCCAAAUAAUCUTT against Rpl28 the z-score was inactive: -0.911. With GGGCUUCACUAAUGUCAAGTT against Rgs19ip1 the z-score was inactive: 0.739. For GGAGGUCCUAGAGUACAAUTT against Fdps, the z-score was inactive: 0.428. In the case of GCCCAAACUCAAGCAAGUCTT against Trpm3, the z-score is reported as inactive: -2.79. For GGAGGGACAUGGAGAUUACTT against Ptpn18, the z-score was inactive: 0.667. With GGUUCAGAACAUUAACUCCTT against Rab18 the z-score was inactive: 0.339. In the case of CCUCUGGUCUCUUAGAAAGTT against Frda, the z-score is reported as inactive: -0.0262. In the case of GGAAAAGAGCAACUACCAGTT against Brf1, the z-score is reported as inactive: -1.48. For GGUGCUUAAUCAACAGAAATT against Scn3a, the z-score was inactive: 0.48. With GGUCUCCAAAGCAGAUACCTT against Svil the z-score was inactive: -2.57. With CGAAUUGGAGAGGAGCUUCTT against Otp the z-score was inactive: 0.0821. With GGUGAUUGGGAAUUGAAAATT against F3 the z-score was inactive: 0.0336. For GGUAUGAUCCAGUAAUCCUTT against V1rc19, the z-score was inactive: 0.0462. With CCGAGUCUUGAACUAGGCATT against Six2 the z-score was inactive: 0.495. For GGAACAAGAACAAGUUGAGTT against Spa17, the z-score was inactive: 0.0891. With GCCAAUCGGCAUCUUCCUUTT against Bcar1 the z-score was inactive: 0.843. For GGUGGUUAUUGGUGGCAGATT against Smc2l1, the z-score was inactive: -1.81. For “GGCCUAAAGUAAUUUUGGGTT against 4922501C03Rik”, the z-score was inactive: 0.173. In the case of GGCUCUAUCACUGAGUCACTT against Dhrs10, the z-score is reported as inactive: 2.72. For GCUGACCUUCAUUCAUAUATT against V1rc33, the z-score was inactive: -1.96. With GGCUACAUGUGAUUUCUCUTT against Ttc7 the z-score was inactive: 0.203. With GCUUCACCUAGAGAUUAUUTT against AI836376 the z-score was inactive: -1.4. For GGAGAUCAAAGAUAUCCUCTT against Rps16, the z-score was inactive: -3.13. For GCAGCUAAGAAGACCACUATT against Zfp185, the z-score was inactive: -0.21. For GGUUGGUCUAGCAAUCUGUTT against Nit1, the z-score was inactive: 0.308. In the case of CGGUUUUUUAAUCUACCUATT against Ppp1r7, the z-score is reported as inactive: -1.68. For GGCUUUAAGAUCACACAAATT against Snrpa, the z-score was inactive: -2. In the case of GAUACAGACCUUGCUCUUCTT against Olfr714, the z-score is reported as inactive: -0.369. With GCUACCUCUCGUAGUAAAATT against Sgk2 the z-score was inactive: 0.146. For GGAGAGCUAAAUAAACAAATT against Kitl, the z-score was inactive: -0.587. In the case of GGCUACUUCUGUACUAGGATT against Gclc, the z-score is reported as inactive: 1.1. In the case of GGAAGUUGAUAAAUGGUCUTT against Pde1a, the z-score is reported as inactive: 1.15. In the case of GGCCAUAAAAUGGUAGUAUTT against Trim36, the z-score is reported as inactive: -1.85. With GGAAGAUGUGUUUCUGCCCTT against Gnefr the z-score was inactive: -0.0367. For CCUUGAGUGAAAGAAUUGATT against BC020151, the z-score was inactive: 2.52. For GGCAAUAUUUCAGAACCUGTT against Tfb2m, the z-score was inactive: -0.691.
